Test results published in PubChem BioAssay AID623959 (National Center for Advancing Translational Sciences (NCATS), 2012).
The whole screen tested about 1,400 compounds, of which fewer than 10 were called active. About 8% were inconclusive and are not listed. Calls come from the whole dose curve; as a rule, active = well fitted curve in the direction sought with a large enough effect; inconclusive = small, poorly fitted or top-dose-only effect, or another doubt; inactive = no such curve, though single readings can be large or run the other way. The list shows a part of the results.

Chains of the proteins cited; added tags and fusions are not shown.
UniProt Q8NER1, whole entry, looked up: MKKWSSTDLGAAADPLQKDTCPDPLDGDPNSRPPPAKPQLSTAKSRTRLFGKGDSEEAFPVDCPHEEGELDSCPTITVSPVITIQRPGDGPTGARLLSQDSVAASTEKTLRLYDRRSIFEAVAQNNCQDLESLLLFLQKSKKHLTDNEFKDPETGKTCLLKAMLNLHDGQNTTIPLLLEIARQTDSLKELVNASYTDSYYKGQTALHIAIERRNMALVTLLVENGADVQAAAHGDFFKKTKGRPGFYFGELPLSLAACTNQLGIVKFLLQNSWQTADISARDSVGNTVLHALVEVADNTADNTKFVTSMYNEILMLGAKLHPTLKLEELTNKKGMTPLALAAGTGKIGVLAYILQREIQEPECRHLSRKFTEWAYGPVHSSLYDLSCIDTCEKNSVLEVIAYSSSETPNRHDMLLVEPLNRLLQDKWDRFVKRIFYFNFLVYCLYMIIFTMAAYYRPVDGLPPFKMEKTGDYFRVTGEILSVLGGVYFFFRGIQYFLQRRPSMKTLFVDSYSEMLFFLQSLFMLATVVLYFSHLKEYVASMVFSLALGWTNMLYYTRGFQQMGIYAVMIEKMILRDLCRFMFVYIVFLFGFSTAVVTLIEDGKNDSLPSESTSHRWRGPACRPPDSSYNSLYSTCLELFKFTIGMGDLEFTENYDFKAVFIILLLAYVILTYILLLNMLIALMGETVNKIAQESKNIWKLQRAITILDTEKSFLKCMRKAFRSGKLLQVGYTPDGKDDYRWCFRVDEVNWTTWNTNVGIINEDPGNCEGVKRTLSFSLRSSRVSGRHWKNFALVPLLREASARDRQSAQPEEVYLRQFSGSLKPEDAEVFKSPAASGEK

Each compound was assayed against Transient receptor potential cation channel subfamily V member 1 (Homo sapiens) (UniProt Q8NER1) (assay: qHTS Assay for Compounds that Act as Potentiators of the Vanilloid Receptor 1: Hit Validation). Details: TRPV1-expressing cells, Fluo-8 calcium influx, capsaicin EC20; series mostly up to 42.1 µM; activity change, positive = potentiation: at the top concentration.
Method in brief: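 Calcium influx via Fluo-8 fluorescence (480/520 nm) on FDSS: 10 s baseline, 3 min compound read, 2 min read after EC20 capsaicin. TRPV1-expressing cells plated 2000/well, grown overnight at 35.5 °C.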
Note: % of control where 0% means no effect.

| Structure (SMILES) | activity change, positive = potentiation |
| --- | --- |
| CCc1ccc(NC(=O)c2ccc3ncsc3c2)cc1 | inactive: -37.9% |
| Cc1noc(C)c1C(=O)NCCCN1CCCC1=O | inactive: -10.5% |
| COCCCNc1nc(N)c([N+](=O)[O-])c(NCc2ccccc2)n1 | inactive: 8.3% |
| Cc1cc(C)n2nc(C(=O)N3CCCC(Nc4ccc(C(C)C)cc4)C3)cc2n1 (stereo not given) | inactive: -38.9% |
| Cc1ccc(-n2nc(C)cc2NC(=O)CC#N)cc1 | inactive: 7.28% |
| Cc1cc(C(=O)N/N=C/c2cccc([N+](=O)[O-])c2)c(C)n1-c1ccccc1 | inactive: -38.6% |
| Nn1c(Cc2ccccc2)nc2cc(Cl)ccc2c1=O | inactive: -8.59% |
| CCOC(=O)N1CCN(C(=O)C2CCN(c3ncnc4c3sc3cccc(F)c34)CC2)CC1 | inactive: -5.75% |
| C/C(=N/NC(=O)CNC(=O)C1COc2ccccc2O1)c1ccc2c(c1)OCCO2 (stereo not given) | inactive: -2.72% |
| COc1ccc(CC(=O)NCCCc2ccccc2)cc1OC | inactive: -38.4% |
| Cc1ccc(C(=O)c2ccccc2C(=O)Nc2ccccc2)cc1 | inactive: -3.77% |
| CC(C)(C)c1ccc(NC(=O)N2CCCN(c3ccc([N+](=O)[O-])cn3)CC2)cc1 | inactive: -37.3% |
| CCCNC(=O)C1CCN(S(=O)(=O)c2c(C)noc2/C=C\c2ccc(OC)cc2)CC1 | inactive: 6.07% |
| O=C(CCc1nc(-c2ccccc2F)no1)NC1CCN(Cc2ccccc2)CC1 | inactive: -5.89% |
| Cc1nc2c(cnn2-c2ccccc2Cl)c(=O)n1-c1ccc(N2CCC(C)CC2)cc1 | inactive: -10.6% |
| Cc1ccc(N2CCN(C(=O)N3CCCC3)CC2)cc1C | inactive: -36.1% |
| O=C(Nc1ccc2c3c(cccc13)CC2)c1ccc(Br)o1 | inactive: -35.9% |
| Cc1nnc(SCC(=O)NCCOc2ccc(Cl)cc2)n1-c1ccccc1 | inactive: -6.48% |
| CC(=O)CC(C)(C)S(=O)(=O)c1ccc(NC(C)=O)cc1 | inactive: -0.365% |
| CCOc1ccccc1CNc1nc2ccccc2n1C | inactive: -0.0311% |
| CCc1ccc2[nH]c(=O)c(CN(CCO)C(=O)NCc3ccccc3)cc2c1 | inactive: 1.77% |
| CC(C)CCSc1nc(N2CCOCC2)c2c(c1C#N)CC(C)(C)OC2 | inactive: -39% |
| N#Cc1nc(-c2ccc(OCc3ccccc3Cl)cc2)oc1NCCCn1ccnc1 | inactive: -1.63% |
| N#CC1(P(=O)(c2ccccc2)c2ccccc2)CCCC1 | inactive: 0.0868% |
| O=C(CCN1C(=O)/C(=C/c2cccs2)SC1=S)NC1=NCCS1 | inactive: -0.528% |
| CCCCN(C(=O)C1CC1)C1CCS(=O)(=O)C1 (stereo not given) | inactive: -3.11% |
| CC(=O)Nc1ccc(NC(=O)c2cccc(-c3cc4ccccc4oc3=O)c2)cc1 | inactive: -9.76% |
| COCCn1c(SCc2cc(=O)n3ccsc3n2)nnc1-c1ccncc1 | inactive: 0.941% |

| Structure (SMILES) | activity change, positive = potentiation |
| --- | --- |
| O=C(NCc1ccccn1)C(=O)NCc1ccccn1 | inactive: -0.978% |
| CCOc1ccc(-n2c(=O)c3c4c(sc3n(CC(=O)NCC3CCCO3)c2=O)CCC4)cc1 (stereo not given) | inactive: -0.738% |
| NNC(=O)C(Cc1c[nH]c2ccccc12)NC(=O)c1ccccc1 (stereo not given) | inactive: -5.67% |
| CC(=O)c1cccc(NC(=O)c2ccc(OC3CSC3)cc2)c1 | inactive: -39.1% |
| Cc1cc(=O)[nH]c(SCC(=O)Nc2nc3ccccc3s2)n1 | inactive: -8.26% |
| Cc1noc(/C=C/N(C)C)c1S(=O)(=O)N1CCCC(C(=O)NCc2ccco2)C1 (stereo not given) | inactive: -5.74% |
| CC(C(=O)N=c1sc2ccccc2n1C)N1C(=O)C2CC=CCC2C1=O (stereo not given) | inactive: -3.07% |
| Cc1nn(-c2ccccc2)nc1C(=O)Nc1nnc(C(F)(F)F)s1 | inactive: -7.1% |
| Cc1ccc(CC(=O)NNC(=O)c2ccncc2)cc1C | inactive: -8.36% |
| O=C(Nc1ccc(Br)cc1)c1cc2ccccn2n1 | inactive: -38.6% |
| CCOC(=O)c1[nH]c(C)c(C(=O)c2ccc(C)cc2)c1C | inactive: -38.9% |
| CSc1ccc(/C=C/C(=O)Nc2ccccc2)cc1 | inactive: 15.6% |
| CCOC(=O)c1ccc(N/C=C/C(=O)c2ccc(OC)cc2)cc1 | inactive: -0.0875% |
| O=C(Nc1ccccc1)c1csc(-c2ccccc2)n1 | inactive: -38.7% |
| CCC(C)(C)c1ccc(OCC(=O)Nc2ccncc2)cc1 | inactive: -38.3% |
| CCOC(=O)C(Cc1ccccc1)C(=O)Nc1cccc(C)c1 (stereo not given) | inactive: -5.17% |
| COc1c(O)ccc(/C=N\NC(=O)c2ccc3c(c2)OCO3)c1[N+](=O)[O-] | inactive: -5.8% |
| Cc1cc(C)n(-c2nnc(N3CCN(c4ccccc4)CC3)nn2)n1 | inactive: -4.84% |
| CC(C)c1ccc(NC(=O)c2cccc(Br)c2)cc1 | inactive: -25.8% |
| Nc1[nH]ncc1-c1ccc(F)cc1 | inactive: -1.83% |
| O=C(NCCc1ccc(O)c(O)c1)C1COc2ccccc2O1 (stereo not given) | inactive: -38% |
| CC(C)(C)NC(=O)CN(C(=O)CN1C(=O)C(=O)c2ccccc21)C(C)(C)C | inactive: -6.12% |
| CC(=O)NCCCc1nc2ccccc2n1Cc1cc(C)ccc1C | inactive: -38.3% |
| O=C(CC(=O)N/N=C/c1ccc(C(=O)O)cc1)NCCc1ccccc1 | inactive: -10.6% |
| CC(C)Cc1nnc(NC(=O)Cc2cccs2)s1 | inactive: -3.2% |
| CC(C)SC1=NC(C)(C)C=C(/C=C/c2ccc(Cl)cc2Cl)N1 | inactive: -6.62% |
| COc1ccc(OC)c(NC(=O)CCC(=O)Oc2ccc(C)cc2)c1 | inactive: -1.54% |
